Assay results: PMC4882052
No constants are given. Whether binding was seen depends on the method and setting. In cells and extracts the contact can be indirect. Some entries that bind do so weakly or less than the wild type.

The chains behind the UniProt entries cited, without tags or fusion partners. Where a name states a change or a piece, a line headed by the entry shows the natural chain unless it says otherwise. A line that says so, or that is headed by a name, gives the form on record, which may keep a tag or linker.
UniProt P62962: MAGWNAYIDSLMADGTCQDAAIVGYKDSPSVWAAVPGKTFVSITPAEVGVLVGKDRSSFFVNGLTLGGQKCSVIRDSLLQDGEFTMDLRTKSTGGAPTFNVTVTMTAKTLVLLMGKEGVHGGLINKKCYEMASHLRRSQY
GST-Pfn1 S91D (phosphomimetic Mus musculus Profilin-1) (P62962, form named): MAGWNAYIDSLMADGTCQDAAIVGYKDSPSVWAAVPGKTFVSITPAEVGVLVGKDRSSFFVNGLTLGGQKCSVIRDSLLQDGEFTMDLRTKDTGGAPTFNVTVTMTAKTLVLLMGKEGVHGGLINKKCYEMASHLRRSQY
GST-Pfn1 S57D (phosphomimetic Mus musculus Profilin-1) (P62962, form named): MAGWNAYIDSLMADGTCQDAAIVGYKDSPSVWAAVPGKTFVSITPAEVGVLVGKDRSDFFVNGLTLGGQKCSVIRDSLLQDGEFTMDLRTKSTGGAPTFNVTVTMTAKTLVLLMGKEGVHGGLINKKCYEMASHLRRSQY
GST-Pfn1 T92D (phosphomimetic Mus musculus Profilin-1) (P62962, form named): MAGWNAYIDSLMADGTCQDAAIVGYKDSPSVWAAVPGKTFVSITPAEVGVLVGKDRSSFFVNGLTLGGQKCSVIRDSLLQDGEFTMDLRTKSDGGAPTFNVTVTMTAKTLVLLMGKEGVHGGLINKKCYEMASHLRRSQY
UniProt P50552: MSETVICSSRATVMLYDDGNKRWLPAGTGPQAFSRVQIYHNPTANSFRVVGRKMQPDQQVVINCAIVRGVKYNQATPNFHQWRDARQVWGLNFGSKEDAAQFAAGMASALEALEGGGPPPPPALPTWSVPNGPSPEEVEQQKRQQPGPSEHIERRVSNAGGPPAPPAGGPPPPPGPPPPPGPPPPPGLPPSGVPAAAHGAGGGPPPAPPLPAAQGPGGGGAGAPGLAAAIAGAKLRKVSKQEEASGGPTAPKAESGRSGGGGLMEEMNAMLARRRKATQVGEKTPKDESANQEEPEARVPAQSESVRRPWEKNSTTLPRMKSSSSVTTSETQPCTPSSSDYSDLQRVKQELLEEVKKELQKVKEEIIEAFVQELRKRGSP

Legend:
Experiment in all cases: pull-down; GST-Pfn1 forms on glutathione-agarose beads (washed 5 times) incubated with HEK-293 lysate overnight at 4°C; lysis buffer 25mM Tris-base pH 7.4, 150mM NaCl, 1% NP-40, 1mM EDTA, 5% glycerol; immunoblot with anti-actin and anti-VASP; qualitative; only the target purified
[1] = biological target: GST-Pfn1 S91D (phosphomimetic Mus musculus Profilin-1) (Mus musculus) (UniProt P62962)
[2] = biological target: GST-Pfn1 S57D (phosphomimetic Mus musculus Profilin-1) (Mus musculus) (UniProt P62962)
[3] = biological target: GST-Pfn1 (wild-type Mus musculus Profilin-1) (Mus musculus) (UniProt P62962)
[4] = biological target: GST-Pfn1 T92D (phosphomimetic Mus musculus Profilin-1) (Mus musculus) (UniProt P62962)

- binding [1]: binds
- binding [2]: binds
- binding [3]: binds
- binding [4]: binds
Substance: VASP (from UniProt P50552 1-380)
